Experimental data taken from the supplement of paper PMC11732987, “Enantioselective OTUD7B fragment discovery through chemoproteomics screening and high-throughput optimisation” (Communications Chemistry, 2025).
Some of the results follow. The data scatter; read single values as rough.

By UniProt entry, the sequences of proteins in these tests, tags left out. Where a name states a change or a piece, a line headed by the entry shows the natural chain unless it says otherwise. Residues count along the entry.
UniProt P19793, 246-274: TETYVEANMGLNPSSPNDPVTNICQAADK
UniProt Q9Y265, whole entry, looked up: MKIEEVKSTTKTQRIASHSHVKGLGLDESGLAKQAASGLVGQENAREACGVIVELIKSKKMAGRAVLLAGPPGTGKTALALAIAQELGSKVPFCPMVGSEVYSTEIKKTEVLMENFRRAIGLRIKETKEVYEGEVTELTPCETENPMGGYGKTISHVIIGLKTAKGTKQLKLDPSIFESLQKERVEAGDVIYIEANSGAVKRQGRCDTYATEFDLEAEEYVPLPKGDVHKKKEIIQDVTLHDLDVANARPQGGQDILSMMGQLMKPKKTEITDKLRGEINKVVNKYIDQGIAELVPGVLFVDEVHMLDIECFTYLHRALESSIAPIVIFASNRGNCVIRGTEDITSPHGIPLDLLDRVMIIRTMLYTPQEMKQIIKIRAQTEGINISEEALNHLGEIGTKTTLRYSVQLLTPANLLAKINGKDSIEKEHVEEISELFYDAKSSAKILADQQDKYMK
UniProt Q8IXW5: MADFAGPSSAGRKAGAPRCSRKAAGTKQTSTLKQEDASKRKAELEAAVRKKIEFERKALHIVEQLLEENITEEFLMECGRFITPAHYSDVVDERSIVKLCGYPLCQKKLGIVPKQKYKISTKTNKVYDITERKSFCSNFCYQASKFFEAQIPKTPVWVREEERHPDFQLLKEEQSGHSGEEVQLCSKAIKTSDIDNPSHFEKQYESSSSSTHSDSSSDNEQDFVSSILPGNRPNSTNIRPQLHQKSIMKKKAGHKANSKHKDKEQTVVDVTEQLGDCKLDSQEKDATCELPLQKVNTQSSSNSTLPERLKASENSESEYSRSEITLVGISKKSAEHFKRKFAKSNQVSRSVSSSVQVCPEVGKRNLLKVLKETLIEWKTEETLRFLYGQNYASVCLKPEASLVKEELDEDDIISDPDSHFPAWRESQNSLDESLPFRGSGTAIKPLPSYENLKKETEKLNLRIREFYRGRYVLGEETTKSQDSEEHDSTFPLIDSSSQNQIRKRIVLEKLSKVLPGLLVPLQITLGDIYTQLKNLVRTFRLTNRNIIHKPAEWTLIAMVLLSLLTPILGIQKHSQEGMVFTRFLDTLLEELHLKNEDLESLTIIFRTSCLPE
UniProt Q9NZJ4: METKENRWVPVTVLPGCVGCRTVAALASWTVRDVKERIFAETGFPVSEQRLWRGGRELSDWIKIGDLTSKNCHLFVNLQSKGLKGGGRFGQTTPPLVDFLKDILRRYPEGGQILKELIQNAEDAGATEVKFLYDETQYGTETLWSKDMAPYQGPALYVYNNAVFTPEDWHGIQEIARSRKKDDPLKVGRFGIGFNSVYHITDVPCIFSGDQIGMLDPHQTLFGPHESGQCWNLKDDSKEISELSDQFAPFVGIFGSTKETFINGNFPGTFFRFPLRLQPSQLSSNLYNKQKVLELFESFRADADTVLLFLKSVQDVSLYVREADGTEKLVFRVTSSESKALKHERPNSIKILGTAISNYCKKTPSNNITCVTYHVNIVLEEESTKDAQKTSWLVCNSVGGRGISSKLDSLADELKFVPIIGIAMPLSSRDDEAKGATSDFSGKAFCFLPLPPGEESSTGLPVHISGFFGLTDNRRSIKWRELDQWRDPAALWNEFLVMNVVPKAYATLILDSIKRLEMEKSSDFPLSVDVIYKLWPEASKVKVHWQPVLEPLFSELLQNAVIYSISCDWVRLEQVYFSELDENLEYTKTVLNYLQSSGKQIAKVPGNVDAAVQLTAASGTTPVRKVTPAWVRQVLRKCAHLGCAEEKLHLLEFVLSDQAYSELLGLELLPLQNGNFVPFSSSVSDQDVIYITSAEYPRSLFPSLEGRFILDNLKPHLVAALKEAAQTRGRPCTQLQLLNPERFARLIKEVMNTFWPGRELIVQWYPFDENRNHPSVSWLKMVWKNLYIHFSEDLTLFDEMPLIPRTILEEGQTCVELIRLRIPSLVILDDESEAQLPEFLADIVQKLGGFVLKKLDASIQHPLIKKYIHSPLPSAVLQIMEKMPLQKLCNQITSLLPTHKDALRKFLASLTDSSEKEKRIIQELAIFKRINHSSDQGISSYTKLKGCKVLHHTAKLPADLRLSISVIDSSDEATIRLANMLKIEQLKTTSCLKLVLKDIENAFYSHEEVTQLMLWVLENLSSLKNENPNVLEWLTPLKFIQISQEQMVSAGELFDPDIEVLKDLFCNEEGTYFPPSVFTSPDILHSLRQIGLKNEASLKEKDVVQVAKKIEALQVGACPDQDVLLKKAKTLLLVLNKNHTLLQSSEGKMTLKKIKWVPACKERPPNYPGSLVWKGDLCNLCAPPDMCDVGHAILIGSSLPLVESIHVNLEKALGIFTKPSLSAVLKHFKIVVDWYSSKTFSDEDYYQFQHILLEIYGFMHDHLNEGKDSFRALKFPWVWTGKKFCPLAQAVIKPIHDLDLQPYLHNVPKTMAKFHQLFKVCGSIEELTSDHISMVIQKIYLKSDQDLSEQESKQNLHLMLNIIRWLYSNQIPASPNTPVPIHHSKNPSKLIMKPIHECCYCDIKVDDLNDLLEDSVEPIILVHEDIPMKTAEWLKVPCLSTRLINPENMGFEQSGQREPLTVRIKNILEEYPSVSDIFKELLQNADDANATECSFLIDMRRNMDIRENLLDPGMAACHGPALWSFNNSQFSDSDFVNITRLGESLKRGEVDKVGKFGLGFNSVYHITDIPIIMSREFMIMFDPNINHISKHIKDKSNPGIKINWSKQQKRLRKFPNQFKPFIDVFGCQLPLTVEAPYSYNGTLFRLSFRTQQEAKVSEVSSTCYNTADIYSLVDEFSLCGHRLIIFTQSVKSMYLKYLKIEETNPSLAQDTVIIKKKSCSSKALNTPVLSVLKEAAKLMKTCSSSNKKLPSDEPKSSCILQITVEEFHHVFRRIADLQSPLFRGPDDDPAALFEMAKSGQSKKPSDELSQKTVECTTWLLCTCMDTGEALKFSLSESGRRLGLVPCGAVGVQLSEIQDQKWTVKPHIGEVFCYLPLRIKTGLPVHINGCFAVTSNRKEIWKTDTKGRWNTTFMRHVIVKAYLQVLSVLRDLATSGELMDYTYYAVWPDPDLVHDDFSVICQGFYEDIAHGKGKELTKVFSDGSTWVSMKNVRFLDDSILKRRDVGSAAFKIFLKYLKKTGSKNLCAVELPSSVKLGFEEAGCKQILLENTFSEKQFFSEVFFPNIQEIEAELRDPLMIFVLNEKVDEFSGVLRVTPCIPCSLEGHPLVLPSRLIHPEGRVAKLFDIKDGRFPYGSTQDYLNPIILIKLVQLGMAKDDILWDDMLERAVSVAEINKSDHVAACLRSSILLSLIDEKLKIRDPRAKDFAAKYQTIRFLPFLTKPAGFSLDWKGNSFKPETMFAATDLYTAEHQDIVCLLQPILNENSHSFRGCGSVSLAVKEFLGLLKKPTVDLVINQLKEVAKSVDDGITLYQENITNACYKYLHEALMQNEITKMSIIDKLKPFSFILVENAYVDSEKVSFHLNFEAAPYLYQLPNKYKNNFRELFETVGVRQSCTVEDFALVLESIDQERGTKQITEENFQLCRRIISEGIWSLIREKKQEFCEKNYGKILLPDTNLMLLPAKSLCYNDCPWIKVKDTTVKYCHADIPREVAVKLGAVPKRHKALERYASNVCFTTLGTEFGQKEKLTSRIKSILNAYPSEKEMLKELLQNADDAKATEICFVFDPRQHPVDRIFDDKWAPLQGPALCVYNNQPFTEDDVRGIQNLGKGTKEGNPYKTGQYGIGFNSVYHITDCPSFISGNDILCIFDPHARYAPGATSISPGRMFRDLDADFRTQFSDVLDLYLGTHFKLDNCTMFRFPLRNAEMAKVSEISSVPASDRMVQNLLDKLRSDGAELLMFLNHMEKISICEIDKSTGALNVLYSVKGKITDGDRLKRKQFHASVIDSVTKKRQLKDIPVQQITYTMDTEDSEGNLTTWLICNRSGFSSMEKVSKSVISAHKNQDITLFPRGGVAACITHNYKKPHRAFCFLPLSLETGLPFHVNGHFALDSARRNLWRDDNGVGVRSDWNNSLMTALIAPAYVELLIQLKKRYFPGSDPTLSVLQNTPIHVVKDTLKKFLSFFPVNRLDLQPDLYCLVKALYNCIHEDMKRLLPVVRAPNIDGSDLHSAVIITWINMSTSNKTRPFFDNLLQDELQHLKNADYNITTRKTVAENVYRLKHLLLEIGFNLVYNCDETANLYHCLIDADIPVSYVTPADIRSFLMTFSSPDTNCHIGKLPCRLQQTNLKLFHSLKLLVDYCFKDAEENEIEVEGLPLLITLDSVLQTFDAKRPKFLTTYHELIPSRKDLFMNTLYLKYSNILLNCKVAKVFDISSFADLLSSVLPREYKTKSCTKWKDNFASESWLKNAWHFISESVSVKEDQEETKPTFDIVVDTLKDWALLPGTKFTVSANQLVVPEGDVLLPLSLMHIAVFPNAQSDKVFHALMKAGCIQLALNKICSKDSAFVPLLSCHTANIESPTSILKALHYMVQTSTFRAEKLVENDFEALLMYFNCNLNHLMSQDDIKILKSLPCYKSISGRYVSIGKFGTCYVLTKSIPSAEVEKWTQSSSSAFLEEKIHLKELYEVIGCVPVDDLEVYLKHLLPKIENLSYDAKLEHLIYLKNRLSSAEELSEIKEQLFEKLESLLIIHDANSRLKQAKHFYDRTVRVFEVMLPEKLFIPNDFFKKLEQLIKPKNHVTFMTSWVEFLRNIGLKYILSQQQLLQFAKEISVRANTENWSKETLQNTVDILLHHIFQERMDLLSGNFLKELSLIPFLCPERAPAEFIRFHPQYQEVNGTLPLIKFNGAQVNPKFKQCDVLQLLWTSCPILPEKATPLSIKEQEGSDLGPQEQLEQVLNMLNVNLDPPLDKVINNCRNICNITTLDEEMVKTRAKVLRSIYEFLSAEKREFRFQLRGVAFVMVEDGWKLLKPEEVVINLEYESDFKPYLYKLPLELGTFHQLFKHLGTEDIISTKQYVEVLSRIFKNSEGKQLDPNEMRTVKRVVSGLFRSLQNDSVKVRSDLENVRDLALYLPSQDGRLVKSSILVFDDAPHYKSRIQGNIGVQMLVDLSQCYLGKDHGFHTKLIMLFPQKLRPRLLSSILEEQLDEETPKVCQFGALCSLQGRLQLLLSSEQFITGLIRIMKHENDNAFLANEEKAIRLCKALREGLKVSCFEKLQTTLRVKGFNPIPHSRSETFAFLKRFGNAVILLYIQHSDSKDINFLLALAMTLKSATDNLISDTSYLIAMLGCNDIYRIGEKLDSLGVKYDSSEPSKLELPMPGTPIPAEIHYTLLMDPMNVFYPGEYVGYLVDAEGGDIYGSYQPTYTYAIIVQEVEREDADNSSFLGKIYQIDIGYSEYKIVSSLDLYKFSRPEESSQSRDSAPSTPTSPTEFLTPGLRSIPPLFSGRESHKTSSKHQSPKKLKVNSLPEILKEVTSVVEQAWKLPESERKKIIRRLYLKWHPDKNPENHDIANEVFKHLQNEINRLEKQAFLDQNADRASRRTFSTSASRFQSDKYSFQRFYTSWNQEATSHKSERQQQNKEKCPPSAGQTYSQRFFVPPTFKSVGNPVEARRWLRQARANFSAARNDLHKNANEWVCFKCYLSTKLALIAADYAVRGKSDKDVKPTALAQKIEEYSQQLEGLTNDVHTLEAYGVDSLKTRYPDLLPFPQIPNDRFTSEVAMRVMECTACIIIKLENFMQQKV
UniProt A6NKF1: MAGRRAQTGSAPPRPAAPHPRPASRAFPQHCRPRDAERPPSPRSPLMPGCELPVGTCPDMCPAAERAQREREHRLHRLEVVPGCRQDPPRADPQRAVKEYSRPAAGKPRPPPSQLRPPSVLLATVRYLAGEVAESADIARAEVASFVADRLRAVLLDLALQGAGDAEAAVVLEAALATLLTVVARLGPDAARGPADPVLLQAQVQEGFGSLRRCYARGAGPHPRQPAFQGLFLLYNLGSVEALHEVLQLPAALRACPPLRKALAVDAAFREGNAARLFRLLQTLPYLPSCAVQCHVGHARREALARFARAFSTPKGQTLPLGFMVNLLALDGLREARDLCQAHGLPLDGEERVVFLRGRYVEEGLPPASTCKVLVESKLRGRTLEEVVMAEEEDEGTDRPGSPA
UniProt Q969K3: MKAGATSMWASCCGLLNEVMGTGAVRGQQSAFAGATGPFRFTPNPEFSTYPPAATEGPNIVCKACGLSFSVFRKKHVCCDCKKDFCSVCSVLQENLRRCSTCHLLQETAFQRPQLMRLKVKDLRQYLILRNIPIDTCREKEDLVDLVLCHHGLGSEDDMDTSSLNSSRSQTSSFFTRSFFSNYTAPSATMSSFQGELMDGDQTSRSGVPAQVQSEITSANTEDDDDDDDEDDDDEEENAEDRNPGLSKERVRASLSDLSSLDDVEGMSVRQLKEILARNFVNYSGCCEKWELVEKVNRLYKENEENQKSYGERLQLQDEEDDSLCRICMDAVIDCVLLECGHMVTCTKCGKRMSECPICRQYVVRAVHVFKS
UniProt Q9BZR6, 39-61: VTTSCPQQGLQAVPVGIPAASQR
UniProt Q9BUL9, 9-39: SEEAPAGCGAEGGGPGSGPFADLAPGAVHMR
UniProt O00442, 340-366: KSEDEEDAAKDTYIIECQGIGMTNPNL

These targets were tested with ClCC(=O)N[C@@H]1CCCc2ccccc12 (assay: log2 mean competition ratio of IA-DTB cysteine labelling (DMSO/compound) (log2 ratio); higher = stronger cysteine engagement by compound). Conditions: 50 µM; treatment time: 4 h; cell line lysate: HEK293T.
Description: (§1)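 IA-DTB competitive cysteine chemoproteomics in HEK293T RIPA lysate. Lysates were treated with compound 29 or 30 at 50 or 200 µM for 4 h, then IA-DTB (500 µM, 1 h), trypsin-digested, NeutrAvidin-enriched and analysed by diaPASEF. Competition ratio = intensity DMSO / intensity compound (n=4 treated, n=64 DMSO); binding: mean log2 CR ≥ 1 and p ≤ 0.05 plus QC filters. Target is the cysteine site.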

Target | log2 mean competition ratio
RXRA C269 (UniProt P19793) | 0.199
RUVBL1 C49 (UniProt Q9Y265) | -0.198
SACM1L C445 (UniProt Q9NTJ5) | -0.0176
RNF19B C290 | 0.165
RPAP2 C358 (UniProt Q8IXW5) | 0.377
RPS28 C27 (UniProt P62857) | 0.369
RNF20 C905 (UniProt Q5VTR2) | -0.188
RPS15A C72 (UniProt P62244) | 0.164
RNF220 C382 (UniProt Q5VTB9) | -0.0834
SAAL1 C366 (UniProt Q96ER3) | -0.0564
RPS16 C25 (UniProt P62249) | 0.464
RPS11 C60 (UniProt P62280) | 0.669
RTN4 C1101 | 0.338
SACS C814 (UniProt Q9NZJ4) | -0.493
SAC3D1 C371 (UniProt A6NKF1) | 0.418
RTF2 C262 (UniProt Q9BY42) | 0.33
RNF128 C303 | -0.19
RPP30 C225 | -0.031

Target | log2 mean competition ratio
RNF34 C137 (UniProt Q969K3) | -0.779
RTN4R C43 (UniProt Q9BZR6) | -0.092
RUSF1 C201 | 0.0984
RPP25 C16 (UniProt Q9BUL9) | -0.372
RPL5 C76 (UniProt P46777) | 0.127
RNF213 C1064 | -0.0199
RPP25 C70 (UniProt Q9BUL9) | 0.492
RPS19BP1 C104 (UniProt Q86WX3) | 0.425
RRBP1 C1216 (UniProt Q9P2E9) | 0.137
RPP25L C70 (UniProt Q8N5L8) | 0.312
RNF25 C360 (UniProt Q96BH1) | 0.353
RNASEL C395 (UniProt Q05823) | -0.0354
RSL1D1 C96 (UniProt O76021) | -0.181
RTEL1 C537 (UniProt Q9NZ71) | 0.0974
RNF213 C2943 | -0.324
RTCA C356 (UniProt O00442) | -0.452
RPL18A C64 (UniProt Q02543) | 0.173

Same assay, conditions: 200 µM; treatment time: 4 h; cell line lysate: HEK293T

Target | log2 mean competition ratio
RUVBL1 C49 (UniProt Q9Y265) | 0.053
SACM1L C445 (UniProt Q9NTJ5) | -0.121
RNF19B C290 | -0.0302
RPAP2 C358 (UniProt Q8IXW5) | 0.21
RPS28 C27 (UniProt P62857) | -0.362
RNF20 C905 (UniProt Q5VTR2) | 0.0195
RPS15A C72 (UniProt P62244) | -0.301
RNF220 C382 (UniProt Q5VTB9) | -0.278
SAAL1 C366 (UniProt Q96ER3) | 0.0746
RPS16 C25 (UniProt P62249) | -0.478
RPS11 C60 (UniProt P62280) | 0.355
RTN4 C1101 | -0.115
SACS C814 (UniProt Q9NZJ4) | -0.346
SAC3D1 C371 (UniProt A6NKF1) | -0.0969
RTF2 C262 (UniProt Q9BY42) | -0.37
RNF128 C303 | -0.207
RPP30 C225 | 0.0438
RNF34 C137 (UniProt Q969K3) | -0.448
RTN4R C43 (UniProt Q9BZR6) | 0.118

Target | log2 mean competition ratio
RUSF1 C201 | -0.0619
RPP25 C16 (UniProt Q9BUL9) | -0.255
RPL5 C76 (UniProt P46777) | -0.362
RNF213 C1064 | -0.0797
RPP25 C70 (UniProt Q9BUL9) | 0.12
RPS6KC1 C733 (UniProt Q96S38) | 0.157
RPS19BP1 C104 (UniProt Q86WX3) | -0.28
RRBP1 C1216 (UniProt Q9P2E9) | -0.161
RPP25L C70 (UniProt Q8N5L8) | -0.246
RNF25 C360 (UniProt Q96BH1) | -0.695
RNASEL C395 (UniProt Q05823) | 0.101
RSL1D1 C96 (UniProt O76021) | -0.0087
RTEL1 C537 (UniProt Q9NZ71) | 0.063
RNF213 C2943 | -0.197
RTCA C356 (UniProt O00442) | 0.0032
SACS C3203 (UniProt Q9NZJ4) | 0.174
RPL18A C64 (UniProt Q02543) | -0.459
RNF150 C304 | -0.034

Each target was assayed with ClCC(=O)N[C@H]1CCCc2ccccc12 in the same assay as above. Conditions: 50 µM; treatment time: 4 h; cell line lysate: HEK293T.
Description: as §1

Target | log2 mean competition ratio
RUVBL1 C49 (UniProt Q9Y265) | -0.203
SACM1L C445 (UniProt Q9NTJ5) | -0.203
RNF19B C290 | -0.307
RPAP2 C358 (UniProt Q8IXW5) | 0.486
RPS28 C27 (UniProt P62857) | 0.543
RNF20 C905 (UniProt Q5VTR2) | -0.46
RPS15A C72 (UniProt P62244) | 0.321
RNF220 C382 (UniProt Q5VTB9) | 0.261
SAAL1 C366 (UniProt Q96ER3) | -0.153
RPS16 C25 (UniProt P62249) | 0.538
RPS11 C60 (UniProt P62280) | 0.345
RTN4 C1101 | 0.0679
SACS C814 (UniProt Q9NZJ4) | -0.262
SAC3D1 C371 (UniProt A6NKF1) | -0.0915
RTF2 C262 (UniProt Q9BY42) | 0.363
RNF128 C303 | -0.784
RPP30 C225 | 0.0416
RNF34 C137 (UniProt Q969K3) | -0.377
RTN4R C43 (UniProt Q9BZR6) | 0.216

Target | log2 mean competition ratio
RUSF1 C201 | -0.141
RPP25 C16 (UniProt Q9BUL9) | -0.147
RPL5 C76 (UniProt P46777) | -0.0653
RNF213 C1064 | -0.162
RPP25 C70 (UniProt Q9BUL9) | 0.357
RPS6KC1 C733 (UniProt Q96S38) | 0.305
RPS19BP1 C104 (UniProt Q86WX3) | 0.12
RRBP1 C1216 (UniProt Q9P2E9) | -0.0138
RPP25L C70 (UniProt Q8N5L8) | 0.603
RNF25 C360 (UniProt Q96BH1) | 0.37
RNASEL C395 (UniProt Q05823) | 0.385
RSL1D1 C96 (UniProt O76021) | -0.102
RTEL1 C537 (UniProt Q9NZ71) | -0.265
RNF213 C2943 | -0.0306
RTCA C356 (UniProt O00442) | -0.722
SACS C3203 (UniProt Q9NZJ4) | 0.401
RPL18A C64 (UniProt Q02543) | 0.61
RNF150 C304 | -0.346
